This is an account of results in publication PMC3261171.

By UniProt entry, the sequences of proteins in these tests, tags left out. Where a name states a change or a piece, a line headed by the entry shows the natural chain unless it says otherwise.
UniProt P48553: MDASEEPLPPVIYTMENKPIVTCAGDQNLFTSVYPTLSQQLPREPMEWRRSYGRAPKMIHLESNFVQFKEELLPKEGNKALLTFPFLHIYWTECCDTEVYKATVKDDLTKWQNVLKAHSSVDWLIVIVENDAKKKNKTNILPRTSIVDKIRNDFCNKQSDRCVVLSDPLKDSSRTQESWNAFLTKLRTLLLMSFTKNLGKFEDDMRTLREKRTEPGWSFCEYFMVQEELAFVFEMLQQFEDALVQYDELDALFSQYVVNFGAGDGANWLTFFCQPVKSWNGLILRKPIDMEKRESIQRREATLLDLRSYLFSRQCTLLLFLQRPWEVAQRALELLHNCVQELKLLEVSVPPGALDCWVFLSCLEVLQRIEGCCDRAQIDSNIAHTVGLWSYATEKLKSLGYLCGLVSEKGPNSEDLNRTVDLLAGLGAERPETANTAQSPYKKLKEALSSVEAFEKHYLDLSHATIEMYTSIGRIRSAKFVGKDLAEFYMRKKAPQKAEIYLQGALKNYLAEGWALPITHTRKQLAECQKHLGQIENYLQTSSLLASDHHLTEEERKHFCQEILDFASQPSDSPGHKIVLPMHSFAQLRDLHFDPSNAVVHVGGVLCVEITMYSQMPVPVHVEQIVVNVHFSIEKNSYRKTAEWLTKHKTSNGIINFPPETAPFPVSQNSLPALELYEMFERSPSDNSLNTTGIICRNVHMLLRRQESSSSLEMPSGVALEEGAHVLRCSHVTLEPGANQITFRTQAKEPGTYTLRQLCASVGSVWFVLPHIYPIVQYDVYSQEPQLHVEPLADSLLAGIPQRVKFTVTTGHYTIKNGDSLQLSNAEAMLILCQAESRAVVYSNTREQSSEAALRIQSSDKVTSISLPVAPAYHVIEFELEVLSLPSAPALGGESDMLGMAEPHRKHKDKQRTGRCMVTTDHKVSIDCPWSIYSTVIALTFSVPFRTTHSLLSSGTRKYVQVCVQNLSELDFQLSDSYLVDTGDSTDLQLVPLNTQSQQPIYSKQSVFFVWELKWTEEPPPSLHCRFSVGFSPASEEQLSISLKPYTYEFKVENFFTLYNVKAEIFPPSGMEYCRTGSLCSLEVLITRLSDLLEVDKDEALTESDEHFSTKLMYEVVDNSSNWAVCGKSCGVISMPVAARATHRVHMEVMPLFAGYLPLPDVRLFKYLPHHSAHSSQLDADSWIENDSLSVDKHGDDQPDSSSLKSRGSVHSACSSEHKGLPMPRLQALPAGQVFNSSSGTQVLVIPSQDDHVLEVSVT
UniProt Q96Q05: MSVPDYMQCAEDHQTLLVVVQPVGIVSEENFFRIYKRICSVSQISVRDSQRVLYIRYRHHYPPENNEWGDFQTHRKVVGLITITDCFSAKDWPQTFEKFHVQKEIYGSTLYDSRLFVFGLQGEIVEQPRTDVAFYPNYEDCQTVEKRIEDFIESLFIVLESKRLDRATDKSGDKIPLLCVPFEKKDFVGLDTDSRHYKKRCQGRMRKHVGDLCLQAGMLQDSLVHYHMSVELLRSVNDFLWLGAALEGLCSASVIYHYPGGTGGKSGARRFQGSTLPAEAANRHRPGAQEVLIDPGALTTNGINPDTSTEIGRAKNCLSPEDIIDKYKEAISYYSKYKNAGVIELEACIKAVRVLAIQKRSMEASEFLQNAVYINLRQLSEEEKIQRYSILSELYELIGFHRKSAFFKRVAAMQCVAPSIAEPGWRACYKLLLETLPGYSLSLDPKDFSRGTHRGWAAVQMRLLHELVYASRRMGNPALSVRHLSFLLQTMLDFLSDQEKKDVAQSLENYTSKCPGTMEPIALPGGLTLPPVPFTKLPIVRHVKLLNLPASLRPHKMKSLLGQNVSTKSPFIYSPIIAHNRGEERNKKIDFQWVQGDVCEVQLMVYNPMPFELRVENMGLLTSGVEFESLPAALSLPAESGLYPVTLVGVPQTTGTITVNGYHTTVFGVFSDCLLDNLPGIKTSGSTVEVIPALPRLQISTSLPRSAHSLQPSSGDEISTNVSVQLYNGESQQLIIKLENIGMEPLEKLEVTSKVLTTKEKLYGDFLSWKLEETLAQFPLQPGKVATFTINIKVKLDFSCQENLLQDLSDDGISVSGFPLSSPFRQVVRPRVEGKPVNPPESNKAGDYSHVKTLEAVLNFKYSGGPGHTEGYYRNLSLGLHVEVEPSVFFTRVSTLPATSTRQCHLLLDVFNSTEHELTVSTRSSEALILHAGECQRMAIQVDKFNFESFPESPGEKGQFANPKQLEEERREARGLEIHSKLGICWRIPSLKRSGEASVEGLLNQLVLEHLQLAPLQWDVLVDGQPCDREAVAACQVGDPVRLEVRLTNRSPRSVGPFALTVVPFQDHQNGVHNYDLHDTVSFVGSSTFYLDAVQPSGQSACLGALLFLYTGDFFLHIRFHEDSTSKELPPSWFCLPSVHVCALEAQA
UniProt Q15436: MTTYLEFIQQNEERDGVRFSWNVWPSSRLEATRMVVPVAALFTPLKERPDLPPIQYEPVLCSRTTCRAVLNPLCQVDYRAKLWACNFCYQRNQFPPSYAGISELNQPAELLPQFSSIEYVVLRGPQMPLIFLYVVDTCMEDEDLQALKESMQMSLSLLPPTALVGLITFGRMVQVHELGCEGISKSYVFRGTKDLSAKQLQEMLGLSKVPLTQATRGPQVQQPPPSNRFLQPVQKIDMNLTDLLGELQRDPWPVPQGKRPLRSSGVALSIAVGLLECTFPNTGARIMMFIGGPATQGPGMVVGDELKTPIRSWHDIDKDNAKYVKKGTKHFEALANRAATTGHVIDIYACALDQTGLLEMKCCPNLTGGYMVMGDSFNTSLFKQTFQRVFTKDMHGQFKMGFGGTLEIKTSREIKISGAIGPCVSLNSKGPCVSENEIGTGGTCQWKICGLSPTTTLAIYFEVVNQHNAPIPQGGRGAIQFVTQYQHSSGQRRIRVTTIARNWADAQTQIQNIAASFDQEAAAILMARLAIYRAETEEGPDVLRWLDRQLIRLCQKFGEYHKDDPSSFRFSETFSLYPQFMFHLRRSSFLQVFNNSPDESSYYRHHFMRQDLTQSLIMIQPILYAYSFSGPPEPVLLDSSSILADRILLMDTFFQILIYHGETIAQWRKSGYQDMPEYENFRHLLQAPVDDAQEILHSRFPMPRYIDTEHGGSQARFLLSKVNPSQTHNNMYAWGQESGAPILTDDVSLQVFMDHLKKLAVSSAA
UniProt Q14203: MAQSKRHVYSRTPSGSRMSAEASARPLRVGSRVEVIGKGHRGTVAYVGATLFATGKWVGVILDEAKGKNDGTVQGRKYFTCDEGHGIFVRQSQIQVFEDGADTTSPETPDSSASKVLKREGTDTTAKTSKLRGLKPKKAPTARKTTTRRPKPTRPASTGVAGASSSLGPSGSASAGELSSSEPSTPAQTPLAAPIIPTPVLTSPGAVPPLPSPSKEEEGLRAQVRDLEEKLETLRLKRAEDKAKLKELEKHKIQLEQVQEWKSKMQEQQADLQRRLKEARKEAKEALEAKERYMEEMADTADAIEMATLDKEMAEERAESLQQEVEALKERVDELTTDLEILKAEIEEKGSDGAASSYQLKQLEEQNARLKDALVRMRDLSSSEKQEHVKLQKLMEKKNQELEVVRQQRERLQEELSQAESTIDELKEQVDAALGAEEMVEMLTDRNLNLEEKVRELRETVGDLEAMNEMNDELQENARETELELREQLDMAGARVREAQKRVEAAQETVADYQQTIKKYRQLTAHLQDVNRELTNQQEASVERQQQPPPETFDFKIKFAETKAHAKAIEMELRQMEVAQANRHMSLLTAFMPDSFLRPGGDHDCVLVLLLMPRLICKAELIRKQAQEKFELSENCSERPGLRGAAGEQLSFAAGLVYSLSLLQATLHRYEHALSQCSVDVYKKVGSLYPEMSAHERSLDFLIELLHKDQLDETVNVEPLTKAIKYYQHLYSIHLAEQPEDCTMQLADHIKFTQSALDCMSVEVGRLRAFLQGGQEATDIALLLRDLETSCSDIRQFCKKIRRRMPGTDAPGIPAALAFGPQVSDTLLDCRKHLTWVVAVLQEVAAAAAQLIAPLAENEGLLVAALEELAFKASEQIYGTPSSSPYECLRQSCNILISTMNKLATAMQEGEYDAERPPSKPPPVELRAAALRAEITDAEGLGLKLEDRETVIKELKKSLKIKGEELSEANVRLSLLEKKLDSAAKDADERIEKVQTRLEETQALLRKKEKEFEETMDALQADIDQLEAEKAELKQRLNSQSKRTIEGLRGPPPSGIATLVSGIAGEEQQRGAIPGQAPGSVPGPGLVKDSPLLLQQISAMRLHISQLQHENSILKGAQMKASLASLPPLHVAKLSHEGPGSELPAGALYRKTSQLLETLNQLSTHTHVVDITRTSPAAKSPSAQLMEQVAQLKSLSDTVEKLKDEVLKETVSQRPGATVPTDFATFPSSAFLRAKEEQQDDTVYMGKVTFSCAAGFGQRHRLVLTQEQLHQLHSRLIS

Among the targets are Myc-tagged TRAPPC10 (UniProt P48553); Myc-tagged TRAPPC9 (UniProt Q96Q05); Myc-Sec23A (UniProt Q15436).
What all share (experiment): co-IP; co-transfected COS1 cells; lysis buffer 20 mM Tris pH 8.0, 100 mM NaCl, 0.1% NP-40; anti-Myc antibody and protein-A sepharose, at least 3 h at 4°C; co-precipitated FLAG-tagged protein detected by anti-FLAG blot
Assay [1] deals with FLAG-tagged CT^Glued (carboxyl terminus of p150^Glued, amino acid 938-1254) (human) (UniProt Q14203).
For the next assay, the target named is T1, Myc-Sec24D (UniProt O94855).
T1 sequence: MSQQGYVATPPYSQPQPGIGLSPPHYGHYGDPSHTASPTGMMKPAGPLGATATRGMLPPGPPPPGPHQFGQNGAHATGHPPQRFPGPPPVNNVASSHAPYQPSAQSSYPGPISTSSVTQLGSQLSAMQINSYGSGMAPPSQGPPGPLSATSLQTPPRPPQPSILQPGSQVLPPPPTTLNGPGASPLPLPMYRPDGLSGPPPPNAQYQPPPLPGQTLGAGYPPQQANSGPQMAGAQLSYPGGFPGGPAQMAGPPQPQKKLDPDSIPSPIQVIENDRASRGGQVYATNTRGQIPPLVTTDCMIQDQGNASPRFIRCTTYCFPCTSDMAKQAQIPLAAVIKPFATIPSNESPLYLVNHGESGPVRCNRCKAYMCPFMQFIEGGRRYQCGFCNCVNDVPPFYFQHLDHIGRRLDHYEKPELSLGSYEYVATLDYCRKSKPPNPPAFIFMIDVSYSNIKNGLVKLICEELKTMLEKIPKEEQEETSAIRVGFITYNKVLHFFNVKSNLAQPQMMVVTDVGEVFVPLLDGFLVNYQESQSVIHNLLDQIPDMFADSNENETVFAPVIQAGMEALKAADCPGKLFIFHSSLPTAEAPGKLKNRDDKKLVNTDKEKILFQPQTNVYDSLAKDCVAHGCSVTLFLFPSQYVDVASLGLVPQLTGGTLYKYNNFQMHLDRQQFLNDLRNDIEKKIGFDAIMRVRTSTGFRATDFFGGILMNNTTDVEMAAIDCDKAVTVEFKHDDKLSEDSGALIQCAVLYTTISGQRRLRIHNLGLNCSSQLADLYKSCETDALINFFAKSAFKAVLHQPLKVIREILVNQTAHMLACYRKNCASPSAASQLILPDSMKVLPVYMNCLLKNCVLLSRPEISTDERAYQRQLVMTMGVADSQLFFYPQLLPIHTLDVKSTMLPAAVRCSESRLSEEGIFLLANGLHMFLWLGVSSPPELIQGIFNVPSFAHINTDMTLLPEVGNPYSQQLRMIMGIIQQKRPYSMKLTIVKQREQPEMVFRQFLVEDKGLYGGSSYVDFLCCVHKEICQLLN

These are yes or no findings as the source states them, for the method shown. In cells and extracts the contact can be indirect. Binding can be weak; no strength is given. For some assays here: Where a sequence is shown, tags or fusion partners need not be part of it.

Consider “GFP-TRAPPC9 (from UniProt Q96Q05 1-1148)”, for which, in assay [1], the binding result is recorded as “binds”.

Take “FLAG-tagged CT^Glued (carboxyl terminus of p150^Glued, amino acid 938-1254) (from UniProt Q14203-1) (domain or fragment)”: the binding result with Myc-Sec24D was “binds”; with Myc-tagged TRAPPC10, “binds weakly”; with Myc-tagged TRAPPC9, “binds”; in the assay with Myc-Sec23A, “binds”.
